Laboratory results: PubChem BioAssay AID1224828 (NIAID, 2016)
Screen: 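Find genes required for NF-kappaB p65 moving into the nucleus after LPS in mouse macrophages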 (primary screen). System: mouse RAW264.7 G9 macrophage reporter cells (GFP-p65, Tnf promoter-mCherry). Knock-down reagent: siRNA pool against mouse genes, 100 nM. Duration: 2 days siRNA transfection, then 40 min LPS before fixation. Treatment: LPS (Salmonella minnesota R595) at 10 ng/ml. Measured: 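Microscopy ratio of nuclear to perinuclear-ring GFP-p65 signal, scaled to the plate median; gene score is the average of two replicate robust z-scores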. Scale: p65 translocation robust z-score: higher = more nuclear NF-kappaB p65 after LPS than the plate median; nuclear/cytoplasmic p65 ratio: higher = more nuclear NF-kappaB p65. Call rule: 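Called active when z exceeds 3.3 or falls under -1.56 (median of Tlr4 controls), giving activity score of at least 50; no calls for control wells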. Calls: active = hit (p65 shift raised or lowered); inactive = no clear change.
The deposit covers about 17,000 reagents; shown is an unselected part. Over the whole deposit, 762 (4.5%) are marked active. 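Active calls include both raised and lowered p65 entry, mostly lowered; wells with fewer than 50 cells lack a z-score.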 Raw values vary from plate to plate and are shown uncorrected. Reagent sequences are not shown.

Silencing of Smyd3 came out at: p65 translocation robust z-score 1.01; nuclear/cytoplasmic p65 ratio, rep 1 = 1.34; nuclear/cytoplasmic p65 ratio, rep 2 = 1.72; low cell count flag enough cells to score; inactive.
Syk scored p65 translocation robust z-score -1.96; nuclear/cytoplasmic p65 ratio, rep 1 = 1.45; nuclear/cytoplasmic p65 ratio, rep 2 = 1.14; low cell count flag enough cells to score; active.
Against Obox6, the values are p65 translocation robust z-score 0.46; nuclear/cytoplasmic p65 ratio, rep 1 = 1.97; nuclear/cytoplasmic p65 ratio, rep 2 = 1.44; low cell count flag enough cells to score; inactive.
Against Htatsf1 the deposit lists p65 translocation robust z-score -0.81; nuclear/cytoplasmic p65 ratio, rep 1 = 1.46; nuclear/cytoplasmic p65 ratio, rep 2 = 1.52; low cell count flag enough cells to score; inactive.
Depletion of Gpatch1 came out at: nuclear/cytoplasmic p65 ratio, rep 1 = 1.65; nuclear/cytoplasmic p65 ratio, rep 2 = 1.74; low cell count flag fewer than 50 cells per well; well left out of scoring; inactive.
Pcdhb2 scored p65 translocation robust z-score -0.09; nuclear/cytoplasmic p65 ratio, rep 1 = 1.37; nuclear/cytoplasmic p65 ratio, rep 2 = 1.46; low cell count flag enough cells to score; inactive.
After knock-down of Hspe1, the record shows p65 translocation robust z-score -1.18; nuclear/cytoplasmic p65 ratio, rep 1 = 1.26; nuclear/cytoplasmic p65 ratio, rep 2 = 1.25; low cell count flag enough cells to score; inactive.
Silencing of Or7g34 gave: p65 translocation robust z-score 0.12; nuclear/cytoplasmic p65 ratio, rep 1 = 1.43; nuclear/cytoplasmic p65 ratio, rep 2 = 1.31; low cell count flag enough cells to score; inactive.
Usf1 scored p65 translocation robust z-score 0.27; nuclear/cytoplasmic p65 ratio, rep 1 = 1.56; nuclear/cytoplasmic p65 ratio, rep 2 = 1.54; low cell count flag enough cells to score; inactive.

Hits, of those listed so far:
Syk → p65 translocation robust z-score: -1.96; nuclear/cytoplasmic p65 ratio, rep 1: 1.45; nuclear/cytoplasmic p65 ratio, rep 2: 1.14; low cell count flag: enough cells to score; call: active

The listing continues:
With knock-down of Zbtb18, the screen gave p65 translocation robust z-score 0.63; nuclear/cytoplasmic p65 ratio, rep 1 = 1.58; nuclear/cytoplasmic p65 ratio, rep 2 = 1.61; low cell count flag enough cells to score; inactive.
Kcnq3 gave p65 translocation robust z-score 1.13; nuclear/cytoplasmic p65 ratio, rep 1 = 1.57; nuclear/cytoplasmic p65 ratio, rep 2 = 1.58; low cell count flag enough cells to score; inactive.
For Vmn2r-ps54 the deposit lists p65 translocation robust z-score -0.69; nuclear/cytoplasmic p65 ratio, rep 1 = 1.24; nuclear/cytoplasmic p65 ratio, rep 2 = 1.17; low cell count flag enough cells to score; inactive.
Against Alox12b the deposit lists p65 translocation robust z-score 0.96; nuclear/cytoplasmic p65 ratio, rep 1 = 1.74; nuclear/cytoplasmic p65 ratio, rep 2 = 1.79; low cell count flag enough cells to score; inactive.
For Kcnj14, the entry reads p65 translocation robust z-score -0.59; nuclear/cytoplasmic p65 ratio, rep 1 = 1.36; nuclear/cytoplasmic p65 ratio, rep 2 = 1.36; low cell count flag enough cells to score; inactive.
Pttg1 gave p65 translocation robust z-score 0.45; nuclear/cytoplasmic p65 ratio, rep 1 = 1.6; nuclear/cytoplasmic p65 ratio, rep 2 = 1.56; low cell count flag enough cells to score; inactive.
Depletion of Zfp410 resulted in: p65 translocation robust z-score -0.35; nuclear/cytoplasmic p65 ratio, rep 1 = 1.44; nuclear/cytoplasmic p65 ratio, rep 2 = 1.82; low cell count flag enough cells to score; inactive.
For Cst9, the values are p65 translocation robust z-score 0.78; nuclear/cytoplasmic p65 ratio, rep 1 = 1.66; nuclear/cytoplasmic p65 ratio, rep 2 = 1.94; low cell count flag enough cells to score; inactive.
Snca gave p65 translocation robust z-score 0.11; nuclear/cytoplasmic p65 ratio, rep 1 = 1.52; nuclear/cytoplasmic p65 ratio, rep 2 = 1.62; low cell count flag enough cells to score; inactive.
Silencing of E230012M21 gave: p65 translocation robust z-score 0.46; nuclear/cytoplasmic p65 ratio, rep 1 = 1.57; nuclear/cytoplasmic p65 ratio, rep 2 = 1.38; low cell count flag enough cells to score; inactive.
Psma2 showed nuclear/cytoplasmic p65 ratio, rep 1 = 1.38; nuclear/cytoplasmic p65 ratio, rep 2 = 1.33; low cell count flag fewer than 50 cells per well; well left out of scoring; inactive.
Hormad1 showed nuclear/cytoplasmic p65 ratio, rep 1 = 1.47; low cell count flag fewer than 50 cells per well; well left out of scoring; inactive.
